The supplement of paper PMC3334620
The full ranking holds about 33,000 sequences; the median of “E-score (-0.5 to 0.5)” is about -0.015, and the highest 2% start at about 0.3. The list shows a part of the results.

Biological target: T1, Abf1 (UniProt P14164)
T1 sequence: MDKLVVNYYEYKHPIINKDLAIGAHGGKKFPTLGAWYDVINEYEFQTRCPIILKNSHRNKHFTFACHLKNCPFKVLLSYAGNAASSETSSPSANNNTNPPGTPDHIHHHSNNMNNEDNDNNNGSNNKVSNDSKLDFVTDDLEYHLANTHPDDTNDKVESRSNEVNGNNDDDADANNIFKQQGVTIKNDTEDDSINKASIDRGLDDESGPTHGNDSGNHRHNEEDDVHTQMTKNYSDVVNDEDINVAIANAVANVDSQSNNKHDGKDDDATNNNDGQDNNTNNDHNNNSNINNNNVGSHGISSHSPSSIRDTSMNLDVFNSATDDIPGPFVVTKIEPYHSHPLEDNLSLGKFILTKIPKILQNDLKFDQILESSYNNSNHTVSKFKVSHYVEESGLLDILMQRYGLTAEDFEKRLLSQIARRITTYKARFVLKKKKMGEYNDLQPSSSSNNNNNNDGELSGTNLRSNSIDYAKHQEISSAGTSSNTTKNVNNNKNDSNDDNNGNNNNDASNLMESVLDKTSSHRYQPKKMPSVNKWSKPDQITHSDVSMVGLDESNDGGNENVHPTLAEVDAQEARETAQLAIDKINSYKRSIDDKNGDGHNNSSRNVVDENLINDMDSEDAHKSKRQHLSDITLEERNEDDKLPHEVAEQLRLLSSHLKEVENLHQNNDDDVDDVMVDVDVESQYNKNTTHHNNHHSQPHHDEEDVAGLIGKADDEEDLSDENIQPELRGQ
Assay: PBM E-score (8-mer binding enrichment) (E-score (-0.5 to 0.5)); higher = stronger / more preferred TF binding
Settings: protein concentration: 200 nM; construct: GST-full length
How it was run: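 Universal all-10-mer Agilent arrays, fresh or stripped once, were converted to double-stranded form by primer extension. GST-tagged yeast transcription factors from PURExpress in vitro transcription/translation, full-length or DNA-binding domain only, were applied at about 100-200 nM and detected with fluorescent anti-GST. After masliner normalisation, the Universal PBM Analysis Suite scored each ungapped eight-base word together with its reverse complement by E-score.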

Row | Sequence | PBM E-score
1 | TGCCACCA | -0.266
2 | AGTAGGAC | -0.0248
3 | CGTTCTCC | -0.0255
4 | AGATCAGA | -0.0113
5 | CGGATACC | -0.0139
6 | ACCTAAGC | -0.0585
7 | AGCAGTCG | -0.0394
8 | AAAGGTAT | 0.108
9 | ACCGAAAT | 0.122
10 | AGCCACCC | -0.169
11 | GAACCAAA | -0.0341
12 | AGCATAAA | 0.0402
13 | ACGTCCAC | 0.136
14 | CAGCTGCA | -0.179
15 | CAAGTCTC | -0.15
16 | TTACGTAA | 0.196
17 | AGCCCTTC | -0.0822
18 | CAACTAAG | -0.0616
19 | GCTGCGCC | -0.157
20 | CGCGCCGA | -0.0473
21 | CCCGGCCA | -0.267
22 | GATAAGAA | 0.27
23 | TGAAGACA | 0.0305
24 | TCTGGGCA | -0.241
25 | ACAAACAG | 0.0387

Row | Sequence | PBM E-score
26 | AGCCGACT | -0.078
27 | AGAACGAA | 0.218
28 | AGCCGTAC | 0.238
29 | CGAGCATC | -0.126
30 | GACGGTCC | 0.122
31 | ACAAGTTG | -0.0996
32 | GATGTTCA | 0.148
33 | CCTGCGTC | -0.22
34 | CAACGGGC | 0.085
35 | AACAAACA | -0.0765
36 | GCCAACGA | 0.00118
37 | AAATTTAG | 0.136
38 | CCGGAGCG | -0.0546
39 | AAGCTATT | -0.0413
40 | ACGACGAG | 0.156
41 | CTGTTATA | 0.116
42 | CAACTTAG | 0.0187
43 | AAACGGAG | -0.0448
44 | GATTGTAA | 0.0426
45 | GCACACCC | -0.125
46 | CCGAAGTC | -0.0748
47 | CTACGCCA | -0.0775
48 | TCAGGGCA | -0.0897
49 | TGCATCCA | -0.0455
50 | ACTACGCT | 0.0196

Row | Sequence | PBM E-score
51 | AGCACGCA | 0.126
52 | AAACCCCT | -0.326
53 | ATTAGAAC | 0.126
54 | ACATGAGA | 0.0787
55 | TCTGTTAA | -0.0344
56 | ATGGGCGC | -0.159
57 | ACGGGTTG | -0.169
58 | GGTAAGCA | -0.12
59 | CAATACGA | 0.281
60 | ACGGTCTG | 0.0716
61 | GTGCCCAA | 0.14
62 | GAGTATAC | 0.0804
63 | CTTTAAAA | 0.0131
64 | AATCTGAG | -0.0962
65 | GACTAAGC | 0.0472
66 | CAGCTACA | 0.00655
67 | GCCTTGCC | -0.241
68 | CAAGCTTA | -0.122
69 | GACTGTCC | -0.119
70 | GCCGGCCC | -0.271
71 | GGGAAAAC | -0.145
72 | CAATCAGG | -0.075
73 | TATGACAA | 0.27
74 | CGGTTAGC | -0.285
75 | ATTAAGTA | 0.133

Row | Sequence | PBM E-score
76 | CGTTAATA | 0.262
77 | GGGACAAC | -0.0272
78 | ACCATTCG | 0.0224
79 | CGTAAGTC | -0.0274
80 | ATTGCAAA | -0.03
81 | AATGGAGA | -0.126
82 | AGGCAAAG | 0.0129
83 | ACTAGTCT | -0.206
84 | ATTTGTTG | 0.0443
85 | ATTCACGA | 0.235
86 | GCCGCCGA | -0.00687
87 | GACCCTGC | -0.0412
88 | AGGGATAA | 0.223
89 | CGGTAGGA | -0.266
90 | AGGGCGTA | 0.0399
91 | CGTGCCGA | 0.171
92 | ATCCTACG | 0.2
93 | TACAAGTA | -0.0738
94 | GCACCGGC | -0.15
95 | TAAACATA | 0.167
96 | CCGGTCGA | -0.327
97 | AAACATAA | -0.0197
98 | ATAGGGAG | -0.204
99 | ATAATCCA | 0.089
100 | ATCTACAT | 0.096

Row | Sequence | PBM E-score
101 | GGGTACGA | 0.0568
102 | ATATCCAG | 0.0839
103 | CCCACTTC | -0.0244
104 | AGGGAACC | 0.0245
105 | CGATCCTA | 0.0743
106 | GAGCTCGC | 0.0785
107 | GAGTGTAA | -0.12
108 | ACAACGCG | -0.00096
109 | AAGGCGGC | -0.00603
110 | AGGGCAAT | -0.125
111 | AAGGAAAA | -0.0301
112 | CCAGTATC | 0.133
113 | CCTTGAGA | -0.0941
114 | CTATGCGA | -0.15
115 | CCAATCAA | -0.0817
116 | AGGGTAAA | -0.0734
117 | ACATAGTA | 0.115
118 | AACTTAAT | 0.166
119 | AACATATG | -0.154
120 | GGCTAGCA | -0.32
121 | CCCGTGCG | 0.054
122 | CATGACCA | 0.123
123 | ATAATCAT | 0.326
124 | ACCAGATC | 0.0219
125 | ATGACGCC | 0.0697

Row | Sequence | PBM E-score
126 | ACCTACCT | 0.0114
127 | ATCGAACG | -0.0626
128 | AAATATGA | 0.0696
129 | CTGAGGAC | -0.0365
130 | GGTGTCGA | -0.139
131 | ACATCTGC | -0.0916
132 | ACTACGTC | -0.114
133 | GATCGTCC | 0.194
134 | GAATGGGA | -0.287
135 | ATATCTTC | 0.191
136 | CTTGCCCC | -0.278
137 | TTGTTAAA | 0.0302
138 | CATAATCC | -0.0536
139 | AGAACAGG | -0.0559
140 | GCGCAGTA | 0.0522
141 | AAGCACCC | -0.201
142 | CCGAATTA | -0.00111
143 | CACGGTTC | 0.154
144 | CAAATTGA | -0.22
145 | AAGCTGCA | -0.00249
146 | AAGCCTCT | -0.257
147 | AAGGTGAG | 0.0161
148 | TACGAACA | 0.351
149 | CTACTGCC | 7e-05
150 | GCCCTTGA | -0.034

Row | Sequence | PBM E-score
151 | CGGAAGAA | -0.158
152 | CAACCTCA | -0.0877
153 | AAAAACTG | -0.0716
154 | CGGCAGGA | -0.112
155 | GAGGCTAA | -0.0534
156 | ACGCTAGT | 0.043
157 | CGGTGGCC | -0.133
158 | CCCGCAAC | -0.128
159 | TAGATGAA | -0.0038
160 | AGACGCGG | -0.19
161 | GCCACTTA | -0.0218
162 | TACGACTA | 0.152
163 | ATCTATTG | -0.00198
164 | GGGAATGA | 0.0497
165 | GAGGTGCC | -0.0278
166 | CAGCATAC | -0.12
167 | CCCCACTA | -0.317
168 | CAGAGCTC | -0.00666
169 | GCACCAAC | -0.151
170 | GCGCGACA | 0.0642
171 | AGGCACAA | -0.132
172 | AGAGATCT | -0.0585

Individual results from the entries so far:
In PBM E-score, TAGATGAA reads -0.0038
In PBM E-score, GAGGTGCC reads -0.0278
In PBM E-score, GAGGCTAA reads -0.0534
In PBM E-score, GCACCAAC reads -0.151
In PBM E-score, CAGAGCTC reads -0.00666
In PBM E-score, CGGAAGAA reads -0.158

Random excerpt: two records from the list
Row | Sequence | PBM E-score
171 | AGGCACAA | -0.132
168 | CAGAGCTC | -0.00666
